Measured values reported in patent US12667824B2, “Carbon dioxide absorbent” (MITSUBISHI GAS CHEMICAL COMPANY, INC., priority 2020, dated 2026).
At least one compound was matched to its structure with a doubt left.

Assays:
[1] = Maximum endothermic temperature of amine compound (DSC, volatilization); format: physicochemical; conditions: DSC 23 to 350° C., 10° C./min, nitrogen; volatilization of the amine compound
[2] = Amine value of amine compound (JIS K7237-1995 titration); format: physicochemical; conditions: 0.1 N perchloric acid-acetic acid titration
[3] = Maximum carbon dioxide (CO2) release temperature of amine compound (DSC); format: physicochemical; conditions: amine compound with CO2 absorbed, DSC 23 to 250° C., 10° C./min, nitrogen
Procedure: (Maximum Carbon Dioxide (CO2) Release Temperature of Amine Compound)
After the above evaluation of the carbon dioxide absorption capacity was completed, the amine compound was removed from the desiccator to obtain the amine compound with carbon dioxide absorbed. The DSC measurement was performed on the amine compound with carbon dioxide absorbed as follows, to measure the maximum carbon dioxide release temperature of the amine compound. […] From the DSC curve obtained thereby, the temperature at which the endothermic amount associated with the desorption of carbon dioxide reached the maximum was calculated, and the temperature thereof was used as the maximum carbon dioxide release temperature of the amine compound.

[4] = Cycle evaluation (absorption, regeneration at 100° C. for 1 hour); conditions: before and after heating at 100° C. for 1 hour
Procedure: After the above evaluation of the carbon dioxide absorption capacity was completed, the amine compound was removed from the desiccator, and the amine compound with carbon dioxide absorbed was heated at 100° C. for 1 hour to release the carbon dioxide absorbed and regenerate the amine compound. At this time, weights of the amine compound before and after the heat treatment were measured, and a weight retention (1st time) was calculated.
Then, on the regenerated amine compound, the above evaluation of the carbon dioxide absorption capacity was performed again, and changes of the carbon dioxide concentration in the desiccator were measured after 2 hours and 24 hours (2nd time).
Then, the amine compound was removed from the desiccator, and the amine compound with carbon dioxide absorbed was heated at 100° C. for 1 hour to release carbon dioxide absorbed and regenerate the amine compound again. At this time, the weights of the amine compound before and after the heat treatment were measured, and the weight retention (2nd time) was calculated.
Next, on the regenerated amine compound, the above evaluation of the carbon dioxide absorption capacity was evaluated again, and changes of the carbon dioxide concentration in the desiccator were measured after 2 hours and 24 hours (3rd time).

NCC1CCCC(CN)C1 (centres unmarked) [Example 1, 1,3-bis(aminomethyl)cyclohexane]
Maximum Endothermic Temperature [1]: 160.9 °C | Amine Value [2]: 789 mgKOH/g | Maximum CO2 Release Temperature [3]: 125.7 °C

N#CCCNCC1CCCC(CN)C1 (centres unmarked) [Example 4]
Maximum Endothermic Temperature [1]: 234.6 °C | Amine Value [2]: 575 mgKOH/g | Weight Retention 1st Time ([4]; 1st regeneration): 100% | Weight Retention 2nd Time ([4]; 2nd regeneration): 100% | Maximum CO2 Release Temperature [3]: 91.1 °C

CC1(C)CC(N)CC(C)(CN)C1 (centres unmarked) [Example 6, Isophoronediamine]
Maximum Endothermic Temperature [1]: 168.8 °C | Amine Value [2]: 659 mgKOH/g | Maximum CO2 Release Temperature [3]: 114.4 °C

NCc1cccc(CN)c1 [compound 1, Meta-xylylenediamine, reference compound]
Maximum Endothermic Temperature [1]: 183.5 °C | Amine Value [2]: 824 mgKOH/g | Maximum CO2 Release Temperature [3]: 135.5 °C
